Results on one substance are retold here after PMC11987316.

Chains of the proteins cited; added tags and fusions are not shown. Residues count along the entry.
UniProt O14543: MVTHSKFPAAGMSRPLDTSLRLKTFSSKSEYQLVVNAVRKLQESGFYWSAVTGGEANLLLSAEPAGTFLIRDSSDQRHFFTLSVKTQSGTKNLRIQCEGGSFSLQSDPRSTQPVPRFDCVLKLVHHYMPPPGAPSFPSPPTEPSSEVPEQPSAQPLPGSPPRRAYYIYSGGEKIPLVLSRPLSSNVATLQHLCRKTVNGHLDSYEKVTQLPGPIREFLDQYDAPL
UniProt P80188, residues 21-198: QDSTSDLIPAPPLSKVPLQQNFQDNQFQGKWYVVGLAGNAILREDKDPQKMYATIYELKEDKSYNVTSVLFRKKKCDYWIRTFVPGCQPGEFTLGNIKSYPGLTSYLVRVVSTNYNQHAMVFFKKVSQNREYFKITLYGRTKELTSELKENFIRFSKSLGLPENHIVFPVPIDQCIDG

The target of the test is Suppressor of cytokine signalling 3 (SOCS3) (human (endogenous in the paper's human cell lines)) (UniProt O14543). The experiment in a line: co-IP; total cell lysates in IP lysis buffer, primary antibodies overnight at 4 °C, protein A/G agarose 2 h at room temperature, western blotting; cell line and precipitating antibody not stated. A general note: Immunoblotting shows a protein as a band on a membrane.

No constants are given. Whether binding was seen depends on the method and setting. In cells and extracts the contact can be indirect. Some results given as binding are weak or reduced against the parent protein; the word gives no strength.

As for “Lipocalin-2 (LCN2) (from UniProt P80188 21-198)”, the binding entry is “binds”.
